Experimental data from patent publication EP0082731A1, “The use of peptides as medicaments” (NOVO INDUSTRI A/S, priority 1981, dated 1983).
Some entries share one result that the patent states for a list of compounds.

Protein sequences, listed by entry. Tags and fused reporters are not part of them. Lines headed by an entry give the natural chain unless they say otherwise; changes in a name come on top.
UniProt P01275: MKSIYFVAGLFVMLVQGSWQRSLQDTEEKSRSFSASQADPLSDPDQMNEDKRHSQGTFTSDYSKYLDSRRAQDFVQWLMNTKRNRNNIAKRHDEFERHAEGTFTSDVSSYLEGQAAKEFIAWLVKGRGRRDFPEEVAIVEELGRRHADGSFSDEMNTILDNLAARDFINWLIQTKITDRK

Tested on: adenylate cyclase
Assay: Activation of the adenylate cyclase in vitro
Format: biochemical
Conditions: compared with glucagon

Substance | effect on the activation of the adenylate cyclase
des-pentapeptide-(22-26)-glucagon [des(22-26)glucagon] | negligible
glucagon(1-26) (HSQGTFTSDYSKYLDSRRAQDFVQWL; Glucagon; UniProt P01275 53-78, looked up, fragment) | negligible
glucagon-(1-21)-heneicosapeptide (HSQGTFTSDYSKYLDSRRAQD; Glucagon; UniProt P01275 53-73, looked up, fragment) [glucagon(1-21)] | negligible
